Source: the supplement of paper PMC10626197
± gives the standard deviation of the averaged measurements. Several reference drugs read as weak here; read low effects with care.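 MCF7, a breast cancer cell line, was exposed to pairs of drugs across a grid of doses. Every plate had solvent-only (DMSO) wells as the untreated reference and a doxorubicin series as the total-kill control. No hit threshold is applied to these viability readings.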

Columns and labels:
MCF7 [1] = assay: cell viability relative to DMSO control (raw), single agent; higher = more viable cells; settings: exposure time 72 h
Procedure: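 MCF7 cells, 1000 cells/well in 384-well plates, single-agent wells of drug 2 (drug 1 at 0 µM) within 6x6 combination matrices (1:3 serial dilutions), 72 h at 37 °C. Viability read by CellTiter-Glo luminescence, 3 biological replicates. Normalised viability sets 0% at the highest doxorubicin dose and 100% at the 0,0 µM control per combination.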

MCF7 [2] = assay: cell viability relative to DMSO control (raw); higher = more viable cells; settings: exposure time 72 h
Procedure: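 MCF7 cells, 1000 cells/well in 384-well plates, treated with 6x6 dose matrices of drug pairs (1:3 serial dilutions, DMSO as lowest dose) for 72 h at 37 °C. Viability read by CellTiter-Glo luminescence, 3 biological replicates. Normalised viability sets 0% at the highest doxorubicin dose and 100% at the 0,0 µM control per combination.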

CCCNC(=O)c1cn2ncnc(Nc3cc(C(=O)NC4CC4)ccc3C)c2c1C
cell viability [%], MCF7 [1]
Settings | 0.37037 µM | 1.11111 µM | 3.33333 µM | 10 µM | 30 µM
plate partner (at 0 µM): Cabazitaxel | 94.5 ± 9.2 | 96.1 ± 10 | 93.3 ± 4 | 83.6 ± 8.5 | 81.2 ± 10
plate partner (at 0 µM): Erlotinib | 108 ± 6.6 | 109 ± 6.7 | 111 ± 6.7 | 103 ± 9.1 | 91.2 ± 6.8
plate partner (at 0 µM): Mitoxantrone | 92 ± 11 | 88.2 ± 8.6 | 88.1 ± 11 | 83.2 ± 13 | 73.4 ± 9.1
plate partner (at 0 µM): Paclitaxel | 88.7 ± 7.5 | 94.5 ± 9.9 | 91.1 ± 3.4 | 80.4 ± 7.4 | 82.8 ± 17
plate partner (at 0 µM): Vincristine | 99.7 ± 9.4 | 99.8 ± 8.7 | 93.4 ± 14 | 87.4 ± 2.9 | 82.5 ± 4.3

CN(C)C1CCN(C(=O)c2ccc(NC(=O)Nc3ccc(-c4nc(N5CCOCC5)nc(N5CCOCC5)n4)cc3)cc2)CC1
cell viability [%], MCF7 [1]
Settings | 0.0148148 µM | 0.0444444 µM | 0.133333 µM | 0.4 µM | 1.2 µM
plate partner (at 0 µM): Anastrozole | 81.3 ± 2.1 | 52.6 ± 6.7 | 35.1 ± 4.3 | 25.4 ± 6 | 22.1 ± 3.5
plate partner (at 0 µM): Cabazitaxel | 77.3 ± 7.9 | 59.1 ± 8.4 | 40.7 ± 6.6 | 29.3 ± 4.6 | 29.3 ± 5.5
plate partner (at 0 µM): ixabepilone | 78.3 ± 4.6 | 58.2 ± 0.79 | 47.2 ± 3.2 | 38.9 ± 2.8 | 38.1 ± 4.5

CN(C)C[C@@H]1CCn2cc(c3ccccc32)C2=C(C(=O)NC2=O)c2cn(c3ccccc23)CCO1
MCF7 [1], plate partner (at 0 µM): Abiraterone
Settings | cell viability [%]
0.123457 µM | 87.5 ± 7.1
0.37037 µM | 90.7 ± 6.1
1.11111 µM | 95 ± 8.8
3.33333 µM | 80.3 ± 5.2
10 µM | 25.9 ± 7.3

Cc1c(Cn2c(C)nc3c(C(=O)O)cc(N4CCOCC4)cc32)cccc1C(F)(F)F
MCF7 [1], plate partner (at 0 µM): Pazopanib
Settings | cell viability [%]
0.0123457 µM | 90.2 ± 7.7
0.037037 µM | 91.3 ± 5.1
0.111111 µM | 88.1 ± 3.9
0.333333 µM | 86.5 ± 4.9
1 µM | 83 ± 11

Cn1cc(-c2ccc3nnc(C(F)(F)c4ccc5ncccc5c4)n3n2)cn1
cell viability [%], MCF7 [1]
Settings | 0.0617284 µM | 0.185185 µM | 0.555556 µM | 1.66667 µM | 5 µM
plate partner (at 0 µM): Docetaxel | 112 ± 1.4 | 112 ± 8.5 | 112 ± 6.6 | 106 ± 2.7 | 102 ± 4
plate partner (at 0 µM): Mitoxantrone | 89.9 ± 6.8 | 88 ± 13 | 91.9 ± 10 | 87.1 ± 7.6 | 86.7 ± 9.1
plate partner (at 0 µM): Vincristine | 82.6 ± 7.3 | 79.7 ± 3 | 79 ± 1.9 | 82.5 ± 2.6 | 77.9 ± 3.2

O=C(NOC[C@H](O)CO)c1ccc(F)c(F)c1Nc1ccc(I)cc1F
MCF7 [1], plate partner (at 0 µM): Vismodegib
Settings | cell viability [%]
0.0246914 µM | 91.1 ± 8.2
0.0740741 µM | 87.6 ± 4.7
0.222222 µM | 91.6 ± 4.3
0.666667 µM | 85.3 ± 6.1
2 µM | 76.3 ± 5.3

Nc1ncn([C@@H]2O[C@H](CO)[C@@H](O)[C@H]2O)c(=O)n1 [5-Azacytidine]
MCF7 [1], plate partner (at 0 µM): Methotrexate
Settings | cell viability [%]
0.123457 µM | 101 ± 5.6
0.37037 µM | 104 ± 3.1
1.11111 µM | 108 ± 13
3.33333 µM | 102 ± 3.2
10 µM | 78.1 ± 15

CC1=C(/C=C/C(C)=C/C=C/C(C)=C\C(=O)O)C(C)(C)CCC1 [13-cis-Retinoic acid]
MCF7 [1], plate partner (at 0 µM): Docetaxel
Settings | cell viability [%]
0.246914 µM | 121 ± 6
0.740741 µM | 117 ± 3.6
2.22222 µM | 118 ± 6.2
6.66667 µM | 110 ± 7.2
20 µM | 105 ± 14

COc1ccc2cccc(CCNC(C)=O)c2c1 [Agomelatine]
MCF7 [1], plate partner (at 0 µM): Raloxifene
Settings | cell viability [%]
0.123457 µM | 111 ± 11
0.37037 µM | 118 ± 12
1.11111 µM | 126 ± 7.8
3.33333 µM | 118 ± 3.6
10 µM | 112 ± 2.8

C=C1/C(=C\C=C2/CCC[C@]3(C)[C@@H]([C@H](C)CCCC(C)C)CC[C@@H]23)C[C@@H](O)C[C@@H]1O [Alfacalcidol]
cell viability [%], MCF7 [1]
Settings | 0.617284 µM | 1.85185 µM | 5.55556 µM | 16.6667 µM | 50 µM
plate partner (at 0 µM): Abiraterone | 99.4 ± 3.2 | 89.9 ± 4.5 | 95.9 ± 10 | 75.9 ± 6.3 | 7.34 ± 3.5
plate partner (at 0 µM): Cabazitaxel | 79.3 ± 2.4 | 76.8 ± 4.2 | 74.1 ± 0.85 | 62 ± 1.8 | 38.9 ± 3.7
plate partner (at 0 µM): Crizotinib | 85.4 ± 4.9 | 82.4 ± 13 | 73.2 ± 4 | 78.4 ± 5.8 | 76 ± 11
plate partner (at 0 µM): Erlotinib | 89.1 ± 9.7 | 88.2 ± 13 | 87.8 ± 18 | 80.5 ± 16 | 33 ± 23
plate partner (at 0 µM): Gefitinib | 87.7 ± 3.7 | 86.4 ± 3.6 | 85.4 ± 3 | 74.5 ± 1.6 | 67.6 ± 1.2
plate partner (at 0 µM): Imatinib | 74 ± 4.7 | 69.1 ± 2.7 | 74.4 ± 10 | 68.7 ± 2.8 | 52 ± 4.1
plate partner (at 0 µM): Megestrol | 94.2 ± 13 | 87 ± 2.8 | 91.4 ± 12 | 93.3 ± 18 | 12.3 ± 4
plate partner (at 0 µM): Pazopanib | 96.9 ± 19 | 102 ± 2.6 | 92.5 ± 12 | 89.6 ± 6.4 | 16.9 ± 5.5
plate partner (at 0 µM): Vandetanib | 87.1 ± 1.9 | 86.3 ± 2.4 | 80.6 ± 4.4 | 75.8 ± 2.6 | 65.3 ± 4.1
plate partner (at 0 µM): Vemurafenib | 102 ± 18 | 99.3 ± 12 | 96.1 ± 14 | 83.8 ± 17 | 1.04 ± 0.11
plate partner (at 0 µM): ixabepilone | 102 ± 11 | 94 ± 12 | 94.9 ± 12 | 87.3 ± 6 | 7.94 ± 0.25

CC[C@]1(O)C[C@H]2CN(CCc3c([nH]c4ccccc34)[C@@](C(=O)OC)(c3cc4c(cc3OC)N(C=O)[C@H]3[C@@](O)(C(=O)OC)[C@H](OC(C)=O)[C@]5(CC)C=CCN6CC[C@]43[C@@H]65)C2)C1 [Vincristine] + CN(C)CCOc1ccc(/C(=C(/CCCl)c2ccccc2)c2ccccc2)cc1 [Toremifene (citrate)]
cell viability [%], MCF7 [2]
Settings | drug 2 concentration 0 µM | drug 2 concentration 0.432099 µM | drug 2 concentration 1.2963 µM | drug 2 concentration 3.88889 µM | drug 2 concentration 11.6667 µM | drug 2 concentration 35 µM
drug 1 concentration 0.0037037 µM | 96.2 ± 2.4 | 93.6 ± 5.1 | 88.5 ± 7.8 | 85.6 ± 9 | 41.9 ± 4.1 | 0.662 ± 0.12
drug 1 concentration 0.0111111 µM | 97.9 ± 5.3 | 101 ± 6.4 | 92.4 ± 3.8 | 85.8 ± 3.2 | 33.4 ± 4.7 | 0.919 ± 0.07
drug 1 concentration 0.0333333 µM | 105 ± 6.9 | 107 ± 7.9 | 99.9 ± 2.8 | 71 ± 8.4 | 37.8 ± 1 | 0.978 ± 0.73
drug 1 concentration 0.1 µM | 88.1 ± 1.8 | 88.6 ± 8.2 | 83.6 ± 0.94 | 73.7 ± 2.7 | 3.02 ± 0.52 | 0.552 ± 0.079
drug 1 concentration 0.3 µM | 96 ± 3 | 90.3 ± 4 | 87.1 ± 1.9 | 74 ± 5.8 | 31.6 ± 9.4 | 0.81 ± 0.076
